PubChem BioAssay AID652272 – Drosophila RNAi Screening Center, 2013

Purpose: 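Genes whose knock-down decreases or increases Hedgehog reporter output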 (primary screen)
Cell system: Drosophila clone 8 (Cl8) cells
Knock-down reagent: long dsRNA against Drosophila genes
Measurement: 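Plate reader light from a firefly reporter under a ptc promoter fragment that responds to Hedgehog, with Renilla light as transfection reference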
Scale: firefly Hh reporter signal: higher = more ptc reporter light; Renilla reference signal: higher = more Renilla control light
Active means: 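Hit when the z-score averaged over two replicates is under -2 or over +3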
Calls: active = hit: reporter lowered or raised; inactive = not a hit
The deposit covers about 21,000 reagents; this is a random part of those with a known target gene and a result. In the full data, 503 (2.4%) are marked active. 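Raw plate light values, not normalised; calls rest on replicate z-scores that were not deposited; hits include reporter decreases as well as increases.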 Unmarked entries are inactive. The numbers tell different reagents against one gene apart. Names joined by + are all predicted targets of the reagent. Not stated in the record: the amount of reagent, the time to read-out.

gene | reagent no. | firefly Hh reporter signal, replicate 1 | firefly Hh reporter signal, replicate 2 | firefly Hh reporter signal, replicate 3 | Renilla reference signal, replicate 1 | Renilla reference signal, replicate 2
Klp61F | 1 | 61512 | 22491 | – | 1872 | 1912
CG13014 | 1 | 74048 | 1.89e5 | – | 2672 | 7465
ERp44 | 1 | 88134 | 96841 | – | 1056 | 1665
mRpL32 | 1 | 1.04e5 | 87981 | – | 3555 | 1777
CG5727 | 1 | 1.18e5 | 70922 | – | 5189 | 3149
BomBc1 | 1 | 1.20e5 | 54426 | – | 2441 | 3793
CG30458 | 1 | 1.38e5 | 84311 | – | 3770 | 6461
CG17141 | 1 | 4.98e5 | 66082 | – | 25096 | 2250
Ir85a | 1 | 1.22e5 | 1.66e5 | – | 5147 | 4752
Unc-115a | 1 | 2.13e5 | – | – | 4861 | –
Epp | 1 | 1.53e5 | 86040 | – | 6170 | 3636
plh | 1 | 1.11e5 | 1.14e5 | – | 4070 | 1760
Ir94f | 1 | 43699 | 2.04e5 | – | 11104 | 4819
CG14180 (retired record) | 1 | 33819 (active) | 26176 | 23805 | 5379 | 2299
CG18787 + CG18789 | 1 | 58100 | 35392 | – | 1204 | 2741
CG1239 | 1 | 1.17e5 | 95489 | – | 4465 | 3652
RhoGAP93B | 1 | 7.71e5 | 1.12e5 | – | 37042 | 3170
jtb | 1 | 76342 | 53648 | – | 2336 | 3904
Or19a | 1 | 1.35e5 | 3.86e5 | – | 4837 | 13629
CG12320 | 1 | 5.34e5 | 84584 | – | 26704 | 1796
LanB1 | 1 | 91877 | 58199 | – | 3344 | 2546
CtsL1 | 1 | 1.01e5 | 2.30e5 | – | 6981 | 9156
CtsL1 | 2 | 58624 | 59942 | – | 2900 | 2532
Mal-A2 | 1 | 1.07e5 | 64194 | – | 2728 | 5836
lncRNA:CR43314 | 1 | 5.92e5 | 2.76e5 | – | 33767 | 11779
CG7130 | 1 | 1.47e5 | 1.40e5 | – | 4944 | 4105
Svil | 1 | 83744 | 1.66e5 | – | 3046 | 8139
Svil | 2 | 59190 (active) | 38120 | – | 4096 | 2418
Svil | 3 | 1.05e5 | 41837 | – | 3009 | 2934
Svil | 4 | 37224 | 9901 | – | 1224 | 800
Svil | 5 | 73387 | 62722 | – | 2332 | 3882
Gem3 | 1 | 93784 | 48549 | 63560 | 4217 | 4928
CG30151 | 1 | 1.02e5 | 3.03e5 | – | 2693 | 11409
hzg | 1 | 85271 | – | – | 710 | 2353
asRNA:CR43470 + CG14830 | 1 | 56922 | 51852 | – | 5925 | 3905
Vha16-2 | 1 | 72544 | 45869 | 44596 | 3591 | 3129
mr | 1 | 1.89e5 | 1.50e5 | – | 7324 | 6084
opa | 1 | 1.41e5 | 1.89e5 | – | 4800 | 4108
CG12439 | 1 | 64131 | 69290 | – | 1561 | 5384
CG14042 + SP555 | 1 | 63801 | 47373 | – | 1764 | 4333
CG14042 + SP555 | 2 | 1.56e5 | 74169 | – | 3814 | 7287
CG15719 | 1 | 75092 | 3.03e5 | – | 1943 | 10569
CG8541 | 1 | 79271 | 64736 | – | 8690 | 4624
CG8888 | 1 | 1.08e5 | 73233 | – | 4662 | 3296
CG8888 | 2 | 98989 | 71826 | – | 1620 | 5632
BTBD9 | 1 | 1.31e5 | 3.41e5 | – | 3703 | 12220
Or71a | 1 | 92656 | – | – | 5575 | 2386
ND-B14.7 | 1 | 1.30e5 | 50216 | – | 2616 | 1994
Lst | 1 | 1.39e5 | 96033 | – | 3770 | 7136
CR17567 (retired record) | 1 | 1.13e5 | 69609 | – | 2873 | 6215
Rbcn-3A | 1 | 1.04e5 | 3.51e5 | – | 3512 | 12480
CG2004 | 1 | 74873 | 2.91e5 | – | 2800 | 11330
sle | 1 | 86162 | 67232 | – | 3378 | 2916
cic | 1 | 3.53e5 | 30576 | – | 24604 | 1164
cic | 2 | 3.08e5 | 23814 | – | 21392 | 916
cic | 3 | 4.56e5 | 76113 | – | 30156 | 2678
cic | 4 | 80768 | 2.42e5 | – | 3254 | 9776

Copied from above, 7 entries:
gene | reagent no. | firefly Hh reporter signal, replicate 1 | firefly Hh reporter signal, replicate 2 | firefly Hh reporter signal, replicate 3 | Renilla reference signal, replicate 1 | Renilla reference signal, replicate 2
Ir85a | 1 | 1.22e5 | 1.66e5 | – | 5147 | 4752
Unc-115a | 1 | 2.13e5 | – | – | 4861 | –
Epp | 1 | 1.53e5 | 86040 | – | 6170 | 3636
plh | 1 | 1.11e5 | 1.14e5 | – | 4070 | 1760
Ir94f | 1 | 43699 | 2.04e5 | – | 11104 | 4819
CG14180 (retired record) | 1 | 33819 (active) | 26176 | 23805 | 5379 | 2299
CG18787 + CG18789 | 1 | 58100 | 35392 | – | 1204 | 2741
